Laboratory results taken from the supplement of paper PMC10849652.
The list shows a part of the results.

Protein sequences, listed by entry. Tags and fused reporters are not part of them. Lines headed by an entry give the natural chain unless they say otherwise; changes in a name come on top.
UniProt O43731: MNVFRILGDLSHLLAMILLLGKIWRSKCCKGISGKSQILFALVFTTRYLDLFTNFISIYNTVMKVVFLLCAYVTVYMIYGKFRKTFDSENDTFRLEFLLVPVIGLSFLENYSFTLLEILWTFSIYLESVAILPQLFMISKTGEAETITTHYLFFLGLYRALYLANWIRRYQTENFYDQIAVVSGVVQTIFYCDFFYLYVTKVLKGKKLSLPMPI
UniProt Q9H9V9: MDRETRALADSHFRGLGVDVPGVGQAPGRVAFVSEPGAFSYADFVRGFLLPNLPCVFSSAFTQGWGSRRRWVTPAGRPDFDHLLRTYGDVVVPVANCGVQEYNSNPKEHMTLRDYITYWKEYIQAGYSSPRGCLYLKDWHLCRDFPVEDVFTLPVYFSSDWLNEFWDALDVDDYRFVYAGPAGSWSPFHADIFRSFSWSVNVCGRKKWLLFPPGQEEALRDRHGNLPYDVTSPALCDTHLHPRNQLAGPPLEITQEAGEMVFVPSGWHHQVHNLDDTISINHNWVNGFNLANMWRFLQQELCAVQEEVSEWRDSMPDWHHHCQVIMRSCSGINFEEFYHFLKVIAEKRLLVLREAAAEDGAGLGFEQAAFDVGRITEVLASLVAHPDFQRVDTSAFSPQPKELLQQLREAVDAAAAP
UniProt Q4G0X4: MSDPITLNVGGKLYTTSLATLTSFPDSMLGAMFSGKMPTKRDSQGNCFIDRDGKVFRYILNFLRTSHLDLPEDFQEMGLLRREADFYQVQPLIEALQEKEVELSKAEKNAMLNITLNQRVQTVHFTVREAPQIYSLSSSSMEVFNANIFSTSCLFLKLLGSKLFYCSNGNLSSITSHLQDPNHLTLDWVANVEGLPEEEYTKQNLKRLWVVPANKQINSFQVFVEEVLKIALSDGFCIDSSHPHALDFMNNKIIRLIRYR
UniProt P08514, whole entry, looked up: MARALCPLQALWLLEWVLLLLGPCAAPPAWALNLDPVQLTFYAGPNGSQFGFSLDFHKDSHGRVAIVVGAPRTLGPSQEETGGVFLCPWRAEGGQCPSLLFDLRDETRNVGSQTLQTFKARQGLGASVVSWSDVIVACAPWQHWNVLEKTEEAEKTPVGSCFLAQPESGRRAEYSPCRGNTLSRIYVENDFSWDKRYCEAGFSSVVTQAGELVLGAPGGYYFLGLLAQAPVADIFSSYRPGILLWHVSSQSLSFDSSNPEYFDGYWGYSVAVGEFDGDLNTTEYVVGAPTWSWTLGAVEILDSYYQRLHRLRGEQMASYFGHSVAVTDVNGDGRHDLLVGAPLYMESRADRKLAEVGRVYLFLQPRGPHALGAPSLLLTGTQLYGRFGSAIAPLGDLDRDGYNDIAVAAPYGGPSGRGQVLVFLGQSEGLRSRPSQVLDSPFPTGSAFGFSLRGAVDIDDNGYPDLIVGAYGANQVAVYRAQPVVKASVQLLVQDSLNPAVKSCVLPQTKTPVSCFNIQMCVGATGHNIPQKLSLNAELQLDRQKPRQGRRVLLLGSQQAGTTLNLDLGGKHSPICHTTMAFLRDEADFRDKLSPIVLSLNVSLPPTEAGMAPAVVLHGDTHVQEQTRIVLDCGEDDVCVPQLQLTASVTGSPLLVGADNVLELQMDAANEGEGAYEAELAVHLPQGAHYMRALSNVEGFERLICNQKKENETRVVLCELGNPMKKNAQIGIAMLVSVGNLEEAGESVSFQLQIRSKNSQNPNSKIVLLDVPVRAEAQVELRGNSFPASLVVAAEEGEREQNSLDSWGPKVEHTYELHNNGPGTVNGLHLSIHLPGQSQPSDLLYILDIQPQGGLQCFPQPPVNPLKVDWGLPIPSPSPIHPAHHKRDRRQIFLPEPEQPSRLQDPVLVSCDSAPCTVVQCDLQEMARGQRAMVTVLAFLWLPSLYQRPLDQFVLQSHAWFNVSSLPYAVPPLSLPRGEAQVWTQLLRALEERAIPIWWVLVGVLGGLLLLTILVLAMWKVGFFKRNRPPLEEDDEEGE
UniProt Q9H9L3: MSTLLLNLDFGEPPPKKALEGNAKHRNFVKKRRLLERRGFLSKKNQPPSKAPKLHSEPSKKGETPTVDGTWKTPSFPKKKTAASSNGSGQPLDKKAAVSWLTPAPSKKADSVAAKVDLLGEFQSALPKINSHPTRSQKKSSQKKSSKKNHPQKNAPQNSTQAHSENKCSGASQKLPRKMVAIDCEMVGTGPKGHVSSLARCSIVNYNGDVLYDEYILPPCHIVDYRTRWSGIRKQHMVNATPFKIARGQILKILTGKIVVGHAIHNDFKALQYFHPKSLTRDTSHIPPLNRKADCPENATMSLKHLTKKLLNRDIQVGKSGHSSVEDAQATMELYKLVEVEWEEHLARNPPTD
UniProt P06756, whole entry, looked up: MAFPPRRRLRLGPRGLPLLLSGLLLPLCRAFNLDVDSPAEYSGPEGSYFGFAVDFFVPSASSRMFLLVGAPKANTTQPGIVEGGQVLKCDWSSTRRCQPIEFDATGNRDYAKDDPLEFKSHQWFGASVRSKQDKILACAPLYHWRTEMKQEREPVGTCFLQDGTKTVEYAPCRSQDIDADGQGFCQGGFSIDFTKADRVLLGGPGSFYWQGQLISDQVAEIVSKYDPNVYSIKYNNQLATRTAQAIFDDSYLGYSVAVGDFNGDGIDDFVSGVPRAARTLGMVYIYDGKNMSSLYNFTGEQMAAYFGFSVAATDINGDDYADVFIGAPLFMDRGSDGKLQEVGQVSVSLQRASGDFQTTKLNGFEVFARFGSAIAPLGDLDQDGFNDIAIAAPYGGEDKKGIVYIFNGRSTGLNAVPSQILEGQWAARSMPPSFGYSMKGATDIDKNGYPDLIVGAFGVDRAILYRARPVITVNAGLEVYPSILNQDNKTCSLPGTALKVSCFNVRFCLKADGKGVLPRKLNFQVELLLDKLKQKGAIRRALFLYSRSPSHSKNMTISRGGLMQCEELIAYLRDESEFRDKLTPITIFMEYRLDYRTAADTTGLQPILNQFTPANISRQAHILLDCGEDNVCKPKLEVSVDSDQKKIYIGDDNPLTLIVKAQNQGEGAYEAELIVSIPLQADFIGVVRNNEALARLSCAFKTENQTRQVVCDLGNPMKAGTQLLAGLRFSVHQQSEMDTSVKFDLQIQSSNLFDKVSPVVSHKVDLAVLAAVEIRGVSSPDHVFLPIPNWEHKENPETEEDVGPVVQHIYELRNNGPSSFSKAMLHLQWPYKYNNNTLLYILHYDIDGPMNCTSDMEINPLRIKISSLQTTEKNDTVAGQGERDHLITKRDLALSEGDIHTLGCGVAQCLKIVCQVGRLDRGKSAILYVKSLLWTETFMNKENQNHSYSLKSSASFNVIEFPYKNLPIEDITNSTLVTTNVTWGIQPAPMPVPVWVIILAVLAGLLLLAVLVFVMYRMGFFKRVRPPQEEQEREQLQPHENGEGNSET
UniProt O00180: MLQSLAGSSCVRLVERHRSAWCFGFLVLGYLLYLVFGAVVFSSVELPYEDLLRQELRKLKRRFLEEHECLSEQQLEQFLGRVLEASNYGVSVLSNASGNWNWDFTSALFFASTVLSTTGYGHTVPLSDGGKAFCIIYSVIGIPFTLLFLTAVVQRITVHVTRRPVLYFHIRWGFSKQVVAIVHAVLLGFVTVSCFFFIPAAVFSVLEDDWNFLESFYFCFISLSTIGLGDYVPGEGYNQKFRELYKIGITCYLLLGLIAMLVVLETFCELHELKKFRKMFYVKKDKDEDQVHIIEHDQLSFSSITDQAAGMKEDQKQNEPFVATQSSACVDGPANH
UniProt Q96DU7: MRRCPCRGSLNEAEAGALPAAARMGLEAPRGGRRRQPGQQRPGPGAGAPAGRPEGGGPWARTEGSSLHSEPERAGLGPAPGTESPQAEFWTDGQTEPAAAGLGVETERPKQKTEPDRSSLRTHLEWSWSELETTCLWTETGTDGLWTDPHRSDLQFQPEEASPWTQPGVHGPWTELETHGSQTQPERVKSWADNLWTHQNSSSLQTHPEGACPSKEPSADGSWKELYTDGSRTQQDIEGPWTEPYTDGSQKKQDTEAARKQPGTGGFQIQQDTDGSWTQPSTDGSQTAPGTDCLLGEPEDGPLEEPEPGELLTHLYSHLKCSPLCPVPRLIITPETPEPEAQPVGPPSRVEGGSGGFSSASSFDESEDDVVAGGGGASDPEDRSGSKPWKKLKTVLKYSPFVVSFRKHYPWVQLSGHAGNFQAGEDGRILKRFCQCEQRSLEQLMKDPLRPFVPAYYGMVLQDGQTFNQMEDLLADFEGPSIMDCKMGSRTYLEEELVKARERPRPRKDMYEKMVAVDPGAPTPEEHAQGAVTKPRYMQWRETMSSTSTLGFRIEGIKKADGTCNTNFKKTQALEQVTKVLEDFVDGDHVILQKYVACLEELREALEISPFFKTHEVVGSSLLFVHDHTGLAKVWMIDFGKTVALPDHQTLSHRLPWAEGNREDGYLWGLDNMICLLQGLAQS
UniProt Q8WYB5, whole entry, looked up: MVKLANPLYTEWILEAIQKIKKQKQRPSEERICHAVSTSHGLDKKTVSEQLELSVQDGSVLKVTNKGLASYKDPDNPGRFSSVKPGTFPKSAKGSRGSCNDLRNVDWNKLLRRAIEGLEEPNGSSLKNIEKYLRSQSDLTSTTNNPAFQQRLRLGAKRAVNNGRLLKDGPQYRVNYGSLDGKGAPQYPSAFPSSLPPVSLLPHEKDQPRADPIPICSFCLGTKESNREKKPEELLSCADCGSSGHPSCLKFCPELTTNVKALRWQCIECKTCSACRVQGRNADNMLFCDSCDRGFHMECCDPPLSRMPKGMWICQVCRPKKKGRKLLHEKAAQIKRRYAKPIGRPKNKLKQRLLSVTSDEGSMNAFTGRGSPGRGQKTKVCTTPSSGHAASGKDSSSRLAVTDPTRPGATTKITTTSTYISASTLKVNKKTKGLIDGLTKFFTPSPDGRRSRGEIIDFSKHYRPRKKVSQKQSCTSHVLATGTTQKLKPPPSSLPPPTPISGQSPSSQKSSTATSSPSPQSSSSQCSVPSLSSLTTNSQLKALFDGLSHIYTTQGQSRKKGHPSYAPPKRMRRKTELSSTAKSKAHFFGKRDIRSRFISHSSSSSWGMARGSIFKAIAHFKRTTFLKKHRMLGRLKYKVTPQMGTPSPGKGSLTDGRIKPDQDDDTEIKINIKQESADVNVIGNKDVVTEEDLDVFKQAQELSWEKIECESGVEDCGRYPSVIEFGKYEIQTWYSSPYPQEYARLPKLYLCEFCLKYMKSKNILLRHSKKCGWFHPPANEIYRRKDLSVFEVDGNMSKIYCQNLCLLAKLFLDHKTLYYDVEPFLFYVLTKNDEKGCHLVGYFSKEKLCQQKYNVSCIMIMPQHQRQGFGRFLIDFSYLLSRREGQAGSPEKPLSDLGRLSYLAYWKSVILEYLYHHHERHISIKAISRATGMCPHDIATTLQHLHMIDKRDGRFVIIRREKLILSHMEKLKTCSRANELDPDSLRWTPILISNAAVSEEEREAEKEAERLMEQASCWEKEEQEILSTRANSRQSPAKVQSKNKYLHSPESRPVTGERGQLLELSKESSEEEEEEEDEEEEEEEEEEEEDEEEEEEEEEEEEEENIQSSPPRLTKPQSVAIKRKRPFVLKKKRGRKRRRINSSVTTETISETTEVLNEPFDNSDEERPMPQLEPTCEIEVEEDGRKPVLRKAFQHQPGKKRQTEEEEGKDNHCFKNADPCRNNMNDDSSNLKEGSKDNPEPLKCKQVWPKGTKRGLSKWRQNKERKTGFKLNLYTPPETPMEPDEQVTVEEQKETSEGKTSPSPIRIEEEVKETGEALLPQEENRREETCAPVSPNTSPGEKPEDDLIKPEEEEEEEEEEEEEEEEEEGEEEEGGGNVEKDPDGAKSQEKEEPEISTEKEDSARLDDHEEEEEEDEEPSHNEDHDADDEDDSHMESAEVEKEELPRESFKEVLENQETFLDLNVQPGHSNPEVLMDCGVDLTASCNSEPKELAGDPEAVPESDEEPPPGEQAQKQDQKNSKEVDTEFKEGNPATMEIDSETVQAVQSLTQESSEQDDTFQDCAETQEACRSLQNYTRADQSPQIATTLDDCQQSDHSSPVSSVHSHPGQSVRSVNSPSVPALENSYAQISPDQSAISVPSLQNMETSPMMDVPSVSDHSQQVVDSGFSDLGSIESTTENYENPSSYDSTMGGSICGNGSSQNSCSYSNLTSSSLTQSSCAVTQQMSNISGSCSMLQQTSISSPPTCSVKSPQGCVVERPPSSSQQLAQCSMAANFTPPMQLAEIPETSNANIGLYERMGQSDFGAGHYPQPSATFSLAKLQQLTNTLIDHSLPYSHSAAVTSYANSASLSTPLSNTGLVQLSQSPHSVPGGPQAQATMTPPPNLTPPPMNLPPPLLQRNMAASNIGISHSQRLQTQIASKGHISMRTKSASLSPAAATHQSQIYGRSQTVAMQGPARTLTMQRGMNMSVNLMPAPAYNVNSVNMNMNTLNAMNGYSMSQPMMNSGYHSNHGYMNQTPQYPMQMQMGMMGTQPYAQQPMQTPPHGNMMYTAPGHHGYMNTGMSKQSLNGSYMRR

Legend:
Test in all cases: log2 fold change, soluble protein after heating vs DMSO (PISA); higher = thermal stabilisation; K562 lysate, 10 uM; active = over 0.2 and 3.5 SD of the protein, either way, in both replicates (recomputed)
vemurafenib = compound: CCCS(=O)(=O)Nc1ccc(F)c(C(=O)c2c[nH]c3ncc(-c4ccc(Cl)cc4)cc23)c1F [vemurafenib]
Outline: (§1)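 Pellets of K562 cells were dounce-homogenised in PBS pH 7.4 with 1 mM MgCl2, and the crude extract was held at 1 mg/mL protein for a 30 min treatment with 10 μM compound. Aliquots were heated for 3 min over 48°C-58°C and pooled before NP-40 was added to 0.5% at 4°C. The supernatant from 21,000xg for 90 min was quantified by TMTpro 16plex LC-MS/MS with channel sums equalised. Values are reported from duplicates as log-two fold change in thermal stability relative to solvent controls.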

[1] = compound: CCCS(=O)(=O)Nc1ccc(F)c(C(=O)c2c[nH]c3ncc(Cl)cc23)c1F
Outline: as §1

[2] = compound: CC[C@@H]1C(=O)N(C)c2cnc(Nc3ccc(C(=O)NC4CCN(C)CC4)cc3OC)nc2N1C1CCCC1
Outline: as §1

volasertib = compound: CC[C@@H]1C(=O)N(C)c2cnc(Nc3ccc(C(=O)N[C@H]4CC[C@H](N5CCN(CC6CC6)CC5)CC4)cc3OC)nc2N1C(C)C [volasertib]
Outline: as §1

[3] = compound: CCn1cc(-c2ccnc3[nH]c(-c4cccc(CN(C)C)c4)cc23)c(-c2ccc(NC(=O)N(C)C)cc2)n1
Outline: as §1

[4] = compound: CN1CCC(CNc2ccc3ncc(-c4cccc(OC(F)(F)F)c4)n3n2)CC1
Outline: as §1

saracatinib = compound: CN1CCN(CCOc2cc(OC3CCOCC3)c3c(Nc4c(Cl)ccc5c4OCO5)ncnc3c2)CC1 [saracatinib]
Outline: as §1

sotrastaurin = compound: CN1CCN(c2nc(C3=C(c4c[nH]c5ccccc45)C(=O)NC3=O)c3ccccc3n2)CC1 [sotrastaurin]
Outline: as §1

barasertib = compound: CCN(CCCOc1ccc2c(Nc3cc(CC(=O)Nc4cccc(F)c4)[nH]n3)ncnc2c1)CCOP(=O)(O)O [barasertib]
Outline: as §1

[5] = compound: CCn1c(C(=O)N(C2CC2)C2CC2)cc2c3c(ncn3C)c(Nc3cc(C)n(C)n3)nc21
Outline: as §1

Measured: log2 fold change

KATNBL1 (UniProt Q9H079)
inactive: vemurafenib -0.011 | [1] -0.03 | [2] 0.284 | volasertib 0.039 | [3] -0.105 | [4] 0.055 | saracatinib -0.068 | sotrastaurin -0.004

KAT5 isoform 3 (UniProt Q92993)
inactive: vemurafenib -0.013 | [1] 0.132 | barasertib 0.016 | [2] 0 | volasertib -0.153 | [3] -0.03 | [4] 0.084 | saracatinib 0.059 | sotrastaurin 0.115

INTS6 (UniProt Q9UL03)
inactive: vemurafenib -0.058 | [1] -0.097 | barasertib 0.03 | [2] -0.261 | volasertib 0.014 | [3] -0.077 | [4] 0.086 | saracatinib 0.107 | sotrastaurin -0.007

KDELR3 (UniProt O43731)
inactive: vemurafenib -0.114 | [1] 0.068 | [2] -0.187 | volasertib -0.035 | [5] -0.043 | [3] -0.12 | [4] 0.204 | saracatinib 0.017 | sotrastaurin -0.088

IWS1 (UniProt Q96ST2)
inactive: vemurafenib -0.004 | [1] 0.027 | barasertib -0.024 | [2] 0.112 | volasertib -0.018 | [5] -0.013 | [3] 0.021 | [4] -0.007 | saracatinib 0.018 | sotrastaurin 0.003

INTS3 (UniProt Q68E01)
inactive: vemurafenib 0.038 | [1] 0.02 | barasertib 0.05 | [2] -0.029 | volasertib -0.017 | [5] -0.083 | [3] 0.072 | [4] -0.018 | saracatinib 0.049 | sotrastaurin 0.015

IPO5 (UniProt H0Y3V4)
inactive: vemurafenib -0.002 | [1] -0.035 | [2] 0.006 | volasertib -0.126 | [5] -0.002 | [3] 0.003 | [4] 0.069 | saracatinib 0.061

ITPR1 (UniProt Q14643)
inactive: vemurafenib 0.187 | [1] -0.136 | barasertib 0.049 | [2] -0.038 | volasertib -0.043 | [5] -0.013 | [3] -0.043 | [4] 0.116 | sotrastaurin -0.037

KDF1 (UniProt Q8NAX2)
inactive: vemurafenib 0.063 | [1] -0.025 | barasertib 0.037 | volasertib -0.013 | sotrastaurin -0.021

KAT8 (UniProt Q9H7Z6)
inactive: vemurafenib -0.022 | [1] 0.022 | barasertib 0.063 | [2] 0.043 | volasertib -0.009 | [5] 0.007 | [3] -0.017 | [4] 0.045 | saracatinib 0.065 | sotrastaurin 0.071

JMJD4 (UniProt Q9H9V9)
inactive: vemurafenib 0.002 | [1] 0.017 | barasertib -0.012 | [2] 0.028 | volasertib 0.092 | [5] 0.152 | [3] -0.151 | [4] 0.045 | saracatinib 0.042 | sotrastaurin -0.056

KCTD21 (UniProt Q4G0X4)
inactive: vemurafenib -0.02 | barasertib 0.197 | [2] -0.087 | [5] -0.134 | sotrastaurin -0.032

ITGA2B (UniProt P08514)
inactive: vemurafenib 0.011 | [1] -0.08 | volasertib 0.22 | [5] 0.021 | [3] -0.051 | [4] -0.013 | sotrastaurin -0.166

ITFG2 (UniProt H0YGR0)
inactive: vemurafenib -0.009 | [1] -0.043 | volasertib -0.076 | [5] -0.14 | saracatinib 0.181

ISG20L2 (UniProt Q9H9L3)
inactive: vemurafenib -0.018 | [1] -0.01 | [2] 0.212 | volasertib -0.013 | [5] -0.043 | [3] 0.02 | [4] -0.038 | saracatinib -0.149

JAK3 (UniProt P52333)
inactive: vemurafenib -0.127 | [1] 0.014 | barasertib 0.064 | volasertib -0.062 | [3] 0.524 | [4] -0.488 | sotrastaurin 0.014

ITIH4 (UniProt Q14624)
inactive: vemurafenib -0.035 | barasertib 0.04 | [2] 0.197 | [5] -0.09 | [3] -0.007 | [4] 0.076 | saracatinib 0.11

ITGAV (UniProt P06756)
inactive: vemurafenib 0.012 | [1] 0.022 | barasertib -0.038 | [2] 0.055 | volasertib 0 | [5] -0.03 | [3] -0.01 | [4] 0.036 | saracatinib 0.005 | sotrastaurin 0.011

KCTD7 (UniProt Q96MP8)
inactive: vemurafenib 0.083 | [1] 0.39 | [2] 0.042 | volasertib 0.243 | [5] 0.096 | saracatinib -0.165 | sotrastaurin -0.123

KDM3A (UniProt Q9Y4C1)
inactive: vemurafenib 0.013 | barasertib -0.007 | [2] 0.061 | [5] -0.022 | [3] 0.113 | [4] -0.093 | saracatinib 0.031 | sotrastaurin 0.036

KCNK1 (UniProt O00180)
inactive: vemurafenib -0.094 | [1] -0.008 | barasertib 0.082 | [2] 0.149 | volasertib -0.038 | [3] 0.133 | [4] 0.027 | saracatinib -0.258

KANSL3 (UniProt Q9P2N6)
inactive: vemurafenib -0.006 | [1] 0.107 | barasertib -0.098 | [2] 0.022 | volasertib -0.002 | [5] 0.03 | [3] -0.016 | [4] 0.01 | saracatinib -0.182 | sotrastaurin 0.125

ITPKC (UniProt Q96DU7)
inactive: vemurafenib -0.06 | barasertib 0.007 | [2] -0.025 | [5] 0.158 | [3] 0.02 | [4] 0.211 | saracatinib 0.059 | sotrastaurin -0.014

ITIH2 (UniProt P19823)
inactive: vemurafenib 0.038 | [1] 0.049 | barasertib -0.016 | [2] 0.079 | volasertib 0.026 | [5] -0.106 | [3] -0.011 | [4] 0.051 | sotrastaurin 0.046

KANK2 isoform 2 (UniProt Q63ZY3)
inactive: vemurafenib -0.197 | [1] 0.037 | [2] -0.079 | volasertib 0.027 | [5] -0.02 | [3] 0.016 | [4] -0.17 | saracatinib 0.062

KAT6B (UniProt Q8WYB5)
inactive: vemurafenib -0.025 | [1] 0.036 | barasertib -0.03 | [2] 0.045 | volasertib 0.026 | [5] -0.054 | [3] 0.055 | [4] 0.051 | saracatinib 0.139 | sotrastaurin -0.075

IST1 isoform 2 (UniProt P53990)
inactive: vemurafenib -0.125 | [1] 0.29 | [2] 0.156 | volasertib 0.113 | [5] 0.009 | saracatinib 0.078 | sotrastaurin -0.012

IQGAP3 (UniProt Q86VI3)
inactive: vemurafenib 0.374 | [1] 0.138 | barasertib -0.2 | volasertib -0.078 | [5] 0.03 | [3] -0.027 | [4] 0.041 | saracatinib 0.038 | sotrastaurin 0.109

IQCB1 (UniProt Q15051)
inactive: vemurafenib -0.073 | barasertib 0.066 | [2] -0.068 | [3] -0.085 | [4] -0.145 | saracatinib -0.175

Quoted from above (2 entries):
KANK2 isoform 2 (UniProt Q63ZY3)
inactive: vemurafenib -0.197 | [1] 0.037 | [2] -0.079 | volasertib 0.027 | [5] -0.02 | [3] 0.016 | [4] -0.17 | saracatinib 0.062

KAT6B (UniProt Q8WYB5)
inactive: vemurafenib -0.025 | [1] 0.036 | barasertib -0.03 | [2] 0.045 | volasertib 0.026 | [5] -0.054 | [3] 0.055 | [4] 0.051 | saracatinib 0.139 | sotrastaurin -0.075

Next results follow.

JAK1 (UniProt P23458)
inactive: vemurafenib 0.044 | barasertib 0.085 | [2] 0.079 | sotrastaurin 0.039

INTS6L (UniProt Q5JSJ4)
inactive: [1] 0.047 | volasertib 0.044 | [5] 0.083 | [3] -0.034 | [4] 0.105 | saracatinib -0.119
